Patent US20180044435A1 (GENEFRONTIER, published 2018)
These are yes or no findings as the source states them, for the method shown. Some binding calls cover weakened binding; strength is not graded here. Where a sequence is shown, tags or fusion partners need not be part of it.

How the values were obtained:
[1] = molecular target: T1, MBP-mouse ADAM28m 527-622 (mouse, UniProt Q9JLN6 527-622); test: ELISA, antigen immobilized at 5 µg/ml, anti-mouse IgG-HRP, TMB
T1 sequence: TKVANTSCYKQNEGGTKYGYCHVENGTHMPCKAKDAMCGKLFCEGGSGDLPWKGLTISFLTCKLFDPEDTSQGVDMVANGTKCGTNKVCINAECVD

[2] = molecular target: T2, fusion protein of MBP with region 536-543 of human membrane-anchored form ADAM28 (SEQ ID NO: 2) at its C-terminal (human); test: Western blotting
T2 sequence: EGGSKYGY

[3] = molecular target: T3, fusion protein of MBP with region 534-553 of human membrane-anchored form ADAM28 (SEQ ID NO: 2) at its C-terminal (human); test: Western blotting
T3 sequence: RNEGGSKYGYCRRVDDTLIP

[4] = molecular target: T4, fusion protein of MBP with region 536-545 of human membrane-anchored form ADAM28 (SEQ ID NO: 2) at its C-terminal (human); test: Western blotting
T4 sequence: EGGSKYGYCR

[5] = molecular target: T5, fusion protein of MBP with region 524-543 of human membrane-anchored form ADAM28 (SEQ ID NO: 2) at its C-terminal (human); test: Western blotting
T5 sequence: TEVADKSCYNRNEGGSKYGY

[6] = molecular target: T1, MBP-mouse ADAM28m 527-622; test: ELISA, antigen immobilized on the plate at 5 µg/ml, 2B6D10 titrated, anti-mouse IgG-HRP, TMB

Measured: binding

B1: anti-human membrane-anchored form ADAM28 antibody 2B6D10 (antibody, V domains shown)
VH: QVQLQQSGAELARPGASVKLSCKASGYTFTSYGISWVKQRTGQGLEWIGEIYPRSGNTYYNEKFKGKATLTADKSSSTAYMELRRLTSEDSAVFFCARENVYSSNYGFAFWGQGTLVTVSA
VL: DVLMTQTPLSLPVSLGDQASISCRSSQNIIHSDGNTYLEWYLQKPGQSPKFLIYKVSNRFSGVPDRFSGSGSGTDFTLKISRVEAEDLGVYYCLQGSHVPWTFGGGTKLEIKR
notes: Mouse monoclonal antibody from a hybridoma, detected with anti-mouse IgG; also called 2B6D10 antibody; clone 2B6D10
binds: all assays above
